For the test, the target named is T1, CCR3 on transfected cell line (UniProt P51677).
T1 sequence (looked up): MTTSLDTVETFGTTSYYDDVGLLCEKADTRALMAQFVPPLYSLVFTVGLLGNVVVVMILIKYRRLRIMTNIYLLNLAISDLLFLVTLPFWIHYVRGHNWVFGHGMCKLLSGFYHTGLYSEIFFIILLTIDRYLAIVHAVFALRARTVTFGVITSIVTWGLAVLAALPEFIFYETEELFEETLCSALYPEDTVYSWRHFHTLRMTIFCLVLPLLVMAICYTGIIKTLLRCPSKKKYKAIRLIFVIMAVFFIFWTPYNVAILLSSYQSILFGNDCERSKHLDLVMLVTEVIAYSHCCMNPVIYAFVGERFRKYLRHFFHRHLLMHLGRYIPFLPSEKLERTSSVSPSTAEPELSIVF
Description: whole cell binding assay on receptor-transfected cell line, biotinylated chemokine.

By UniProt entry, the sequences of proteins in these tests, tags left out. Where a name states a change or a piece, a line headed by the entry shows the natural chain unless it says otherwise.
UniProt P51671: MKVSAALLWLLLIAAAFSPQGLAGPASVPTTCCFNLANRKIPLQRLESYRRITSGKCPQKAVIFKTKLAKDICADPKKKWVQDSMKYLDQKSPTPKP

Results are given in words; binding and its absence hold for the method and conditions named. Some entries that bind do so weakly or less than the wild type.

On to “biotinylated CCL11/Eotaxin (biotin in position 73) (from UniProt P51671 24-97) (ligand)”, for which the binding result is on record as “binds”.

These data come from patent US20040138422A1 (published 2004).
